Experimental data: US20250283871A1, “COMPOSITIONS AND METHODS FOR MODULATING THE INTERACTION BETWEEN SS18-SSX FUSION ONCOPROTEIN AND NUCLEOSOMES” (Dana-Farber Cancer Institute, Inc., priority 2020, published 2025)

Test system: BAF complex subunits and histone proteins
Assay: Mass spectrometry proteomics of purified HA-SS18 WT and HA-SS18-SSX1 complexes (Tables 5A-5E)
Design: species or system human
Conditions: for Total / Unique: HA-SS18SSX1_CHR_peptides; for Total: total peptides of the identified protein; for Unique: unique peptides of the identified protein
[1] = HA-SS18WT_CHR_peptides: protein identified in HA-SS18 WT BAF complex purification from nuclease-treated solubilized chromatin (CHR), HEK-293T
[2] = HA-SS18SSX1_NE_peptides: protein co-purified with HA-SS18-SSX1 BAF complexes from soluble nuclear extract (NE), HEK-293T cells
[3] = HA-SS18WT_NE_peptides: HA-SS18 WT complexes purified from nuclear extract (NE), HEK-293T, label = protein identified (Gene Symbol)
[4] = HA-SS18SSX1 purification, NE (soluble nuclear extract) fraction, HEK-293T, peptides per identified protein

Molecule | Total | Unique | Total (total peptides) [1] | Unique (unique peptides) [1] | Total (peptides) [2] | Unique (peptides) [2] | Total (peptides) [3] | Unique (peptides) [3] | Total (total peptides) [4] | Unique (unique peptides) [4]
BCAS2 (protein, UniProt O75934 2-225, looked up) Pre-mRNA-splicing factor SPF27: AGTGLVAGEVVVDALPYFDQGYEAPGVREAAAALVEEETRRYRPTKNYLSYLTAPDYSAFETDIMRNEFERLAARQPIELLSMKRYELPAPSSGQKNDITAWQECVNNSMAQLEHQAVRIENLELMSQHGCNAWKVYNENLVHMIEHAQKELQKLRKHIQDLNWQRKNMQLTAGSKLREMESNWVSLVSKNYEIERTIVQLENEIYQIKQQHGEANKENIRQDF | 1 | 1 | 1 | 1 | – | – | – | – | – | –
SLC25A4 (protein, UniProt P12235 2-298, looked up) ADP/ATP translocase 1: GDHAWSFLKDFLAGGVAAAVSKTAVAPIERVKLLLQVQHASKQISAEKQYKGIIDCVVRIPKEQGFLSFWRGNLANVIRYFPTQALNFAFKDKYKQLFLGGVDRHKQFWRYFAGNLASGGAAGATSLCFVYPLDFARTRLAADVGKGAAQREFHGLGDCIIKIFKSDGLRGLYQGFNVSVQGIIIYRAAYFGVYDTAKGMLPDPKNVHIFVSWMIAQSVTAVAGLVSYPFDTVRRRMMMQSGRKGADIMYTGTVDCWRKIAKDEGAKAFFKGAWSNVLRGMGGAFVLVLYDEIKKYV | 1 | 1 | – | – | 2 | 2 | 3 | 3 | – | –
CDK2AP1 (protein, UniProt O14519 1-115, looked up) Cyclin-dependent kinase …: MSYKPNLAAHMPAAALNAAGSVHSPSTSMATSSQYRQLLSDYGPPSLGYTQGTGNSQVPQSKYAELLAIIEELGKEIRPTYAGSKSAMERLKRGIIHARGLVRECLAETERNARS | 1 | 1 | – | – | – | – | – | – | – | –
DAZAP1 (protein, UniProt Q96EP5 1-407, looked up) DAZ-associated protein 1: MNNSGADEIGKLFVGGLDWSTTQETLRSYFSQYGEVVDCVIMKDKTTNQSRGFGFVKFKDPNCVGTVLASRPHTLDGRNIDPKPCTPRGMQPERTRPKEGWQKGPRSDNSKSNKIFVGGIPHNCGETELREYFKKFGVVTEVVMIYDAEKQRPRGFGFITFEDEQSVDQAVNMHFHDIMGKKVEVKRAEPRDSKSQAPGQPGASQWGSRVVPNAANGWAGQPPPTWQQGYGPQGMWVPAGQAIGGYGPPPAGRGAPPPPPPFTSYIVSTPPGGFPPPQGFPQGYGAPPQFSFGYGPPPPPPDQFAPPGVPPPPATPGAAPLAFPPPPSQAAPDMSKPPTAQPDFPYGQYAGYGQDLSGFGQGFSDPSQQPPSYGGPSVPGSGGPPAGGSGFGRGQNHNVQGFHPYRR | 1 | 1 | 1 | 1 | – | – | 4 | 4 | 4 | 3
